PubChem BioAssay AID652243 | Drosophila RNAi Screening Center – 2013

Purpose: 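Fly regulators of androgen-dependent reporter output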 (primary screen)
Cells: Drosophila S2R+ cells
Reagents: long dsRNA against Drosophila genes
Time to read-out: 72 h (48 h, then 24 h hormone)
Challenge: synthetic androgen R1881 at 10 nM for 24 h
Read-out: 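Firefly light from an androgen-responsive reporter and Renilla control light per well, raw and unnormalised, for each of two replicates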
Direction: firefly reporter light: higher = more light from androgen-responsive reporter; Renilla control light: higher = more constitutive control signal (cell number, transfection)
Call rule: 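Across duplicate plates, a knock-down whose log firefly/Renilla ratio shifted a set fold down or up from the GFP/LacZ control mean was a hit; the downward cut appears as both 1.5 and 3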
Calls: active = hit: reporter lowered or raised; inactive = no hit
In all, the deposit lists about 24,000 reagents; this is an unselected part of those that have a named target and a result. In the full data, 246 (1%) got an active call. 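Plates not normalised; calls are printed but the firefly/Renilla ratio behind them is not deposited; fold cut for lowering reported inconsistently.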 The raw values are shown without normalisation. The numbers tell different reagents against one gene apart. Not stated in the record: the amount of reagent.

The first 4 entries, ahead of the listing:
target gene	reagent	firefly reporter light, replicate 1	firefly reporter light, replicate 2	Renilla control light, replicate 1	Renilla control light, replicate 2	activity call
ND-B14.5AL	1	2.19e5	2.30e5	2.75e6	2.73e6	inactive
ND-B14.5AL	2	3.43e5	3.63e5	1.10e6	1.22e6	inactive
Rfk	1	25068	93256	3.00e5	3.82e5	inactive
Rfk	2	3.56e5	3.03e5	1.16e6	1.06e6	inactive

Results, repeating the preview:
target gene	reagent	firefly reporter light, replicate 1	firefly reporter light, replicate 2	Renilla control light, replicate 1	Renilla control light, replicate 2	activity call
ND-B14.5AL	1	2.19e5	2.30e5	2.75e6	2.73e6	inactive
ND-B14.5AL	2	3.43e5	3.63e5	1.10e6	1.22e6	inactive
Rfk	1	25068	93256	3.00e5	3.82e5	inactive
Rfk	2	3.56e5	3.03e5	1.16e6	1.06e6	inactive
CG14006	1	99672	1.29e5	7.35e5	9.55e5	inactive
CG14006	2					inactive
Atg5	1	1.15e5	1.24e5	9.43e5	5.51e5	inactive
aly	1	2.03e5	2.18e5	2.42e6	2.94e6	inactive
aly	2	3.85e5	4.63e5	1.60e6	2.57e6	inactive
aly	3	4.15e5	4.98e5	1.79e6	1.41e6	inactive
Ptp99A	1	1.75e6	7.96e5	4.72e6	2.04e6	inactive
Ptp99A	2	1.83e5	1.56e5	2.20e6	1.97e6	inactive
Ptp99A	3	2.30e5	2.53e5	2.29e6	2.77e6	inactive
Ptp99A	4	2.36e5	2.96e5	2.28e6	3.85e6	inactive
Ptp99A	5	6.09e5	4.93e5	2.15e6	1.70e6	inactive
Ptp99A	6	4.07e5	7.44e5	8.62e5	1.60e6	inactive
Ptp99A	7	8.31e5	9.79e5	1.74e6	1.90e6	inactive
Ptp99A	8					inactive
CG3611	1	4.46e5	3.57e5	1.67e6	1.70e6	inactive
ocm	1	5.49e5	7.32e5	1.23e6	1.14e6	inactive
ocm	2	2.40e5	3.00e5	6.17e5	7.04e5	inactive
CG10301	1	1.77e5	1.97e5	2.22e6	2.14e6	inactive
CG4835	1	2.53e5	2.20e5	1.57e6	9.92e5	inactive
CG4835	2	6.80e5	9.34e5	7.51e5	8.46e5	inactive
Nckx30C	1	2.56e5	1.96e5	1.74e6	1.36e6	inactive
Nckx30C	2	3.20e5	2.17e5	2.56e6	1.76e6	inactive
Nckx30C	3	1.53e5	1.20e5	1.47e6	1.52e6	inactive
Nckx30C	4	1.09e5	71301	1.09e6	9.54e5	inactive
CG6052	1	2.02e5	1.26e5	2.34e6	1.23e6	inactive
Gip	1	4.25e5	5.75e5	2.26e6	3.13e6	inactive
Nek2	1	4.62e5	6.06e5	1.53e6	1.76e6	inactive
Nek2	2	4.69e5	3.72e5	5.57e5	6.53e5	inactive
Nek2	3					inactive
Klp68D	1	8.55e5	9.33e5	1.52e6	1.99e6	inactive
Klp68D	2	9.04e5	6.55e5	1.12e6	1.27e6	inactive
Pitslre	1	43883	64286	4.32e5	4.92e5	inactive
Pitslre	2	1.87e5	2.10e5	8.58e5	1.11e6	active
Pitslre	3					inactive
Pitslre	4					inactive
CG10919	1	93239	1.12e5	2.35e6	2.17e6	inactive
